# Measurements taken from US20230176066A1, “PLASMON-ENHANCED FLUORO-DOT ASSAYS” (Washington University, priority 2021, published 2023).
# Tested on: TNFα
# Assay: Comparison of fluorescent labels in the Fluoro-dot assay (signal, signal-to-noise ratio)
# Parameters: species or system Mouse
# Conditions: for fluorescence signal of secreted TNFα under epifluorescence microscope: LPS-treated JAWS II DCs, 90 minutes, biotinylated TNFα detection antibody
# [1] = single cell secreting TNFα, line-scans
Substance,fluorescence signal of secreted TNFα under epifluorescence microscope,"signal-to-noise ratio, higher compared to conventional fluorophore [1] [fold]","signal-to-noise ratio, higher compared to quantum dots [1] [fold]",fluorescence signal of secreted TNFα under epifluorescence microscope (listed as quantum dots),fluorescence signal of secreted TNFα under epifluorescence microscope (listed as conventional fluorophore)
Cy5-plasmonic-fluor: Streptavidin-conjugated Cy5 plasmon-enhanced fluorescent nanolabel purchased from Auragent Bioscience,robust signal,~45,~10,–,–
Strep-Qdot™ 655: streptavidin-quantum dot 655 (Thermo Fisher Scientific Q10123MP),very faint signal,–,–,no discernable signal,–
conventional fluorophores: streptavidin-Cy5 (Thermo Fisher Scientific SA1011) used as conventional fluorophore,a signal could not be discerned,–,–,–,no discernable signal
